According to PubChem BioAssay AID485298 (National Center for Advancing Translational Sciences (NCATS), 2010):
Out of some 320,000 compounds screened, about 740 (0.23%) were called active. The inconclusive results got no clear call from the source; some entries with a clear call stand among them for comparison. Calls follow the shape of the dose curve; as a rule, active = well fitted activation curve with a large enough effect; inconclusive = small, poorly fitted or top-dose-only effect; inactive = no such curve, though single readings can be large or run the other way. Where the call is inconclusive, the potency comes from a doubtful curve fit.

Experiment: qHTS Assay for Small Molecule Inhibitors of Mitochondrial Division or Activators of Mitochondrial Fusion; also: nearly all actives have a fitted effect of over 45% in size
Conditions: S. cerevisiae fusion-defective mutant growth rescue, CellTiterGlo 48 h; series mostly up to 46.1 µM
Procedure, shortened: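 Read-out: ATP-based luminescence (CellTiterGlo, 10 min ambient) reporting growth of fusion-defective ts yeast after 48 hours at 37C on glycerol/ethanol YPEG medium in the presence of compound.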
Potency is read from the fitted curve at half-maximal effect.

SMILES | Potency
O=c1[nH]c2ccc(S(=O)(=O)N3CCN(c4ccccc4F)CC3)cc2s1 | inconclusive: 31.6 µM [activator, single point]
Nc1cc2nn(-c3ccccc3)nc2cc1Cl | inactive
COc1ccc(-c2nnc(NC(=O)C(C)C)o2)cc1 | inactive
O=C(c1cccs1)N1N=C(c2ccc(O)cc2)CC1c1ccccc1 (configuration not stated) | inconclusive: 6.31 µM [activator, partial curve]
COc1ccc([C@H]2CC(=O)C=C(c3ccc(Cl)c(C(F)(F)F)c3)C2)cc1 | inconclusive: 31.6 µM [activator, single point]
Cc1c(NC(=O)c2cccc(-c3cc4ccccc4oc3=O)c2)cccc1-c1nc2ncccc2o1 | inactive
O=C(NCc1ccc(Cl)cc1)C(=O)N/N=C/c1ccc(Br)cc1 | inconclusive: 22.4 µM [activator, single point]
Cc1cc(C)cc(NC(=O)Cn2c(=O)oc3cc(S(=O)(=O)N4CCC(C)CC4)ccc32)c1 | inactive
CCn1c(=O)n(CC)c2cc(N3CCCC3)c(NC(=O)c3ccccc3)cc21 | inconclusive: 11.2 µM [activator, partial curve]
O=C(Nc1ccccc1C(=O)N1CCN(c2cccc(Cl)c2)CC1)C1=CSCCO1 | active: 35.5 µM
Cc1ccc(S(=O)(=O)N2CCCCC2)cc1C(=O)N(C)CC(=O)Nc1ccc(Cl)c(C(F)(F)F)c1 | inactive
CCOC(=O)C1CCCN(C2CC(=O)N(c3ccc(N4C(=O)CC(N5CCCC(C(=O)OCC)C5)C4=O)cc3)C2=O)C1 (configuration not stated) | inactive
O=C(NCCCN1CCCC1)c1ccc2c(c1)N(Cc1ccccc1F)C(=O)c1ccccc1S2=O (configuration not stated) | inconclusive: 31.6 µM [activator, partial curve, poor fit]
Cc1ccccc1C(=O)c1c[nH]c(C(=O)NCCc2ccccn2)c1 | inconclusive: 22.4 µM [activator, single point]
Cc1cccc(-c2n[nH]c(=S)n2Cc2ccccc2)c1 | inconclusive: 11.2 µM [activator, partial curve]
Cc1ccc(C)c(S(=O)(=O)NCC(c2ccco2)N2CCc3ccccc3C2)c1 (configuration not stated) | inconclusive: 22.4 µM [activator, single point]
COCCn1c(C)cc(C(=O)CN2C(=O)NC3(CCCCCCC3)C2=O)c1C | inactive
COc1c(Cl)cc(Cl)cc1/C=C/C(=O)c1ccc(NC(=O)c2cccs2)cc1 | inconclusive: 7.08 µM [activator, full curve, poor fit]
CCCCCC(=O)N/N=C/c1cc(Br)c(O)c(OC)c1 | inconclusive: 6.31 µM [activator, partial curve]
Cc1ccc(-c2nnc3ccc(SCC(=O)N4CCCc5ccccc54)nn23)cc1 | inconclusive: 31.6 µM [activator, single point]
CN(CC(=O)Nc1c(Cl)cccc1Cl)C(=O)c1cc(-c2cccs2)nn1-c1ccccc1 | active: 20 µM
O=Cc1ccc(Oc2cc(-c3ccccc3)nc(-c3ccccc3)n2)cc1 | inactive
CCCOc1cccc(NC(=O)OC2CCN(C)CC2)c1 | inactive
CCOC(=O)CC(=O)CSc1nc2c(sc(=S)n2-c2ccc(OCC)cc2)c(=O)[nH]1 | inconclusive: 12.6 µM [activator, partial curve]

SMILES | Potency
CCCC(=O)OCCNc1cc(SCc2ccco2)c2nonc2c1[N+](=O)[O-] | inactive
O=C(Oc1cccc(Nc2ncnc3ccccc23)c1)c1ccccc1Cl | inconclusive: 2.82 µM [activator, full curve, poor fit]
Cc1cc(C)c2c(-n3cccc3)n[nH]c2n1 | inactive
Cc1ccc(C(=O)C(c2ccccc2)N2Cc3ccccc3C2=N)cc1 (configuration not stated) | inconclusive: 15.8 µM [activator, partial curve]
Nn1c(SCc2ccc(C(=O)O)cc2)nnc1-c1ccc(Cl)cc1Cl | inconclusive: 11.2 µM [activator, partial curve]
COc1cc(C(=O)Nc2nc(-c3ccc(F)cc3)cs2)ccc1OCC(=O)N1CCOCC1 | inactive
O=C(COC(=O)c1ccccc1C(=O)c1ccccc1)Nc1cccc([N+](=O)[O-])c1 | inconclusive: 17.8 µM [activator, partial curve]
CCOC(=O)N=Nc1c(O)n(Cc2ccccc2)c2ccccc12 | inconclusive: 20 µM [activator, single point]
N/C(=N\N=C/c1ccc(Br)cc1)N/N=C\c1ccc(Br)cc1 | inconclusive: 35.5 µM [activator, single point]
O=C(COc1ccc(Cl)cc1)NCCSCc1ccccc1Cl | inconclusive: 14.1 µM [activator, single point]
COc1ccc(C(=O)N=c2sc3c(C)ccc(OC)c3n2C)cc1 | inactive
CCN(CC)C(=O)OCc1c(-c2cccc(OC)c2)ncc2ccccc12 | inconclusive: 7.94 µM [activator, single point]
CCc1ccc(OCC(=O)Nc2ccc(CN3CCCCC3)cc2)cc1 | inconclusive: 3.55 µM [activator, partial curve]
COc1ccc(CN2C(=O)C(CC(C)C)Nc3ncnc(N4CCN(c5ccccc5)CC4)c32)cc1 (configuration not stated) | inconclusive: 14.1 µM [activator, single point]
O=C(c1ccco1)N(Cc1ccc([N+](=O)[O-])cc1)c1ccc(Cl)cc1 | inactive
CCCCCCNC(=O)Cc1c(O)c2ccccc2[nH]c1=O | inactive
CCOC(=O)c1cnc(-n2nc(C)cc2C)nc1Nc1ccc2c(c1)OCO2 | inconclusive: 0.501 µM [activator, full curve, poor fit]
Cc1cccc(N2CCN(C(=O)/C=C/c3ccco3)CC2)c1C | inconclusive: 22.4 µM [activator, single point]
O=C1CCCC2=C1C(c1ccncc1)n1c(nc3ccccc31)N2 (configuration not stated) | inactive
O=C(CSc1nc(Cc2ccccc2)nc2ccccc12)Nc1nc2c(s1)CCCC2 | inconclusive: 15.8 µM [activator, single point]
CC(CCc1ccccc1)NC(=O)/C=C/c1ccc(Cl)cc1 (configuration not stated) | inconclusive: 35.5 µM [activator, single point]
CN(CC(=O)NC(=O)NC1CCCCC1)CC(=O)Nc1ccc(OC(F)(F)F)cc1 | inconclusive: 20 µM [activator, single point]
Cc1ccc(NC(=O)Cc2nnc(SCC(=O)Nc3nncs3)n2C)cc1 | inconclusive: 35.5 µM [activator, single point]
CC(=O)Nc1ccc(C2=CC(=O)C[C@H](c3ccc(Cl)cc3)C2)cc1 | inconclusive: 35.5 µM [activator, single point]

Structural class, the compounds so far containing a nitro group on carbon
SMILES | Potency
CCCC(=O)OCCNc1cc(SCc2ccco2)c2nonc2c1[N+](=O)[O-] | inactive
O=C(COC(=O)c1ccccc1C(=O)c1ccccc1)Nc1cccc([N+](=O)[O-])c1 | inconclusive: 17.8 µM [activator, partial curve]
O=C(c1ccco1)N(Cc1ccc([N+](=O)[O-])cc1)c1ccc(Cl)cc1 | inactive

Rewritten field by field: entries from further up
COc1ccc(C(=O)N=c2sc3c(C)ccc(OC)c3n2C)cc1
  Potency: inactive
COc1ccc(CN2C(=O)C(CC(C)C)Nc3ncnc(N4CCN(c5ccccc5)CC4)c32)cc1 (configuration not stated)
  Potency: inconclusive: 14.1 µM [activator, single point]
O=C1CCCC2=C1C(c1ccncc1)n1c(nc3ccccc31)N2 (configuration not stated)
  Potency: inactive

Going on with the list:

SMILES | Potency
COc1cccc(C(=O)COc2ccccc2-c2ccccc2)c1 | inconclusive: 15.8 µM [activator, single point]
CCOC(=O)N1CCN(Cc2nc(-c3cccs3)no2)CC1 | inconclusive: 5.62 µM [activator, single point]
O=C(NCc1ccc(F)cc1)c1ccc(S(=O)(=O)Nc2cccc(C(F)(F)F)c2)cc1 | inactive
O=C(CSc1nc2ccccc2n1-c1ccccc1)Nc1ncc(Cl)cc1Cl | active: 20 µM
CCOc1ccc2c(=O)c(Oc3ccccc3OCC)coc2c1 | inactive
c1ccc(-c2cc(-c3ccc(N4CCOCC4)cc3)nc3ccccc23)cc1 | inconclusive: 35.5 µM [activator, single point]
CSCc1ccc(C(=O)N2CCCC(Nc3ccc4c(c3)OCCO4)C2)o1 (configuration not stated) | inactive
COc1cccc(C(=O)NC(C)c2cccc3ccccc23)c1OC (configuration not stated) | inconclusive: 11.2 µM [activator, partial curve]
O=C(c1cc(COc2ccc(F)cc2Cl)on1)N1CCC(c2ccncc2)CC1 | inactive
O=C(Nc1ccc(N2CCCCC2)c(Cl)c1)c1ccc2c(c1)OCCO2 | inconclusive: 15.8 µM [activator, single point]
Cc1cccc(Cn2c(=O)oc3ccc(C)cc32)c1 | inactive
Cn1c(CCCNC(=O)c2ccccc2)nc2ccccc21 | inactive
CN(c1ccccc1)C1CCCCC1NS(=O)(=O)c1ccc(Cl)cc1 (configuration not stated) | inconclusive: 35.5 µM [activator, single point]
Cc1cc(C)c(S(=O)(=O)NCCc2ccccc2)c(C)c1 | inconclusive: 25.1 µM [activator, single point]
COc1ccc(-n2c(CN3CCN(C)CC3)nc3ccc([N+](=O)[O-])cc3c2=O)c(OC)c1 | inconclusive: 5.62 µM [activator, single point]
COc1cc(Cl)c(C)cc1NC(=O)CCN1C(=O)NC(C)(C)C1=O | inactive
CCOc1ccc2nc(C)cc(C(=O)O)c2c1 | inactive
COc1ccc(OC)c(-c2nn(-c3ccccc3)cc2C(=O)N2CCc3ccccc3C2)c1 | inconclusive: 22.4 µM [activator, single point]
Cc1ccc(NC(=O)CCC(=O)c2cccs2)c(Br)c1 | inactive
O=c1c(C(c2nnnn2C2CCCCC2)N2CCCCC2)coc2ccc(Cl)cc12 (configuration not stated) | inconclusive: 1 µM [activator, full curve]
Cc1cc(Cl)ccc1OCCCC(=O)OCC(=O)Nc1cccc(S(N)(=O)=O)c1 | inactive
N#Cc1nc(-c2ccco2)oc1N1CCC(C(N)=O)CC1 | inconclusive: 6.31 µM [activator, single point]
CC(C)n1c(C(=O)OCC(=O)NCc2ccc3c(c2)OCO3)cc2occc21 | inconclusive: 12.6 µM [activator, partial curve]
O=C(O)c1cc([N+](=O)[O-])ccc1NCCCc1ccccc1 | active: 8.2 µM
